# Laboratory results: PubChem BioAssay AID504327 (National Center for Advancing Translational Sciences (NCATS), 2011)
# Protein sequences, listed by entry. Tags and fused reporters are not part of them.
# UniProt Q92830, whole entry, looked up: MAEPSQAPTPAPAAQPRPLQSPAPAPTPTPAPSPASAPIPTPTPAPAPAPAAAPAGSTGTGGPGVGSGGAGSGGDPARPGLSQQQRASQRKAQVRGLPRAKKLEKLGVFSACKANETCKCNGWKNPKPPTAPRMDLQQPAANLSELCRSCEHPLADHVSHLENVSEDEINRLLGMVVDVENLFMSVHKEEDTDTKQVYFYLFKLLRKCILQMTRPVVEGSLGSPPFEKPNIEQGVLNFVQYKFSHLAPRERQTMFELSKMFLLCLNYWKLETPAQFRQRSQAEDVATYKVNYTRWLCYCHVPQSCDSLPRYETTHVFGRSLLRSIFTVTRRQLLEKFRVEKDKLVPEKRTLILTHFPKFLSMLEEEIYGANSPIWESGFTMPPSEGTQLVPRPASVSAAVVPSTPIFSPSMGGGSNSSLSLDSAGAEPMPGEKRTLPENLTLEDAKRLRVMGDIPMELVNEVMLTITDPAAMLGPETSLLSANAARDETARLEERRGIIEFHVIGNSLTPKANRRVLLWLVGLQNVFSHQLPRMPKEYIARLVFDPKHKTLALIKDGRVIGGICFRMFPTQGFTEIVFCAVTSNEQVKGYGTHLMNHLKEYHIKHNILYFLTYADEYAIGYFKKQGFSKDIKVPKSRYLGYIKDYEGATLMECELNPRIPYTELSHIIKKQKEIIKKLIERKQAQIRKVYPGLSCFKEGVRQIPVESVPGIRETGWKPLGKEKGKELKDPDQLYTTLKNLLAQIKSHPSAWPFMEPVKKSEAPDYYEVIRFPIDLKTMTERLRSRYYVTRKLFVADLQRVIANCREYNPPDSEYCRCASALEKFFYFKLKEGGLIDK
# Where “and” joins values, the source holds several entries; their conditions need not be identical. Identical values can stand only once. The campaign covered roughly 390,000 compounds. About 820 (0.21%) were called active. Inconclusive results, whose numbers are uncertain, are shown with a selection of clear calls. The call rests on the fitted dose curve; in most records, active means well fitted inhibition curve with a large enough effect; inconclusive means small, poorly fitted or top-dose-only effect, or another doubt; inactive means no such curve, though single readings can be large or run the other way. A potency beside an inconclusive call is a rough fit, not a confirmed value.
# Molecular target: Histone acetyltransferase KAT2A (Homo sapiens) (UniProt Q92830)
# Assay: qHTS Assay for Inhibitors of GCN5L2
# Conditions: GCN5L2 HAT assay, ThioGlo1 CoA-SH fluorescence; activity change, negative = inhibition: at 58.9 µM (top of the series) unless noted
# How it was run: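 ThioGlo1-coupled HAT assay: 20nM GCN5L2, 70uM acetyl-CoA, 75uM H3(1-25) peptide, pH 7.5. Fluorescence read at 340/540nm at start and after 20 min at room temperature.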
# On the % scale 0 is the no-effect control and ±100 the full control effect; potency means the concentration at half of the fitted maximal effect.
SMILES,Potency,"activity change, negative = inhibition"
CC(=O)NCCNc1ncncc1-c1ccccc1C,"inconclusive: 39.8 µM [inhibitor, single point]",
COCCn1c(=O)c(CCc2ccccc2)nc2cnc(N3CCNCC3)nc21,"inconclusive: 25.1 µM [inhibitor, single point]",
CCOc1cc(C)c(Cl)cc1S(=O)(=O)N(C)C,"inconclusive: 0.141 µM [inhibitor, full curve, poor fit]",
O=S(=O)(NC1CCN(S(=O)(=O)c2c(F)cccc2F)C1)c1ccc2c(c1)OCCO2 (stereo not given),,inactive: 1.21%
O=C(CS(=O)(=O)c1ccc(F)cc1)Nc1nnc(-c2cccs2)o1,"inconclusive: 0.891 µM [inhibitor, single point]",
O=C(NCCN1CCOCC1)C(=O)NCC1OCCN1S(=O)(=O)c1ccccc1 (stereo not given),"inconclusive: 7.94 µM [inhibitor, partial curve, poor fit]",
NNC(=O)c1ccncc1,"inconclusive: 15.8 µM [inhibitor, single point]",
COc1ccc(-c2n[nH]c(=S)n2N)c(OC)c1,,inactive: -4.75%
COC(=O)c1cc2c(N)c(C(=O)c3ccccc3)sc2nc1C(OC)OC,"inconclusive: 39.8 µM [inhibitor, single point]",
CCc1c(C(=O)N2CCCN(C)CC2)csc1C,"inconclusive: 1 µM [inhibitor, full curve, poor fit]",
COc1cccc(-c2cncnc2NCc2cccnc2)c1,"inconclusive: 28.2 µM [inhibitor, single point]",
Cc1ccc(OCCCC(=O)N2CCOCC2)cc1,,inactive: -4.1%
COc1ccccc1N1CCN(c2ccc3cc(S(=O)(=O)N4CCCCC4)ccc3n2)CC1,"inconclusive: 25.1 µM [inhibitor, partial curve] and inconclusive: 31.6 µM [inhibitor, single point]",
CC1=CC(=C(C#N)c2nc3ccccc3s2)C=C(C)N1CC1CCCO1 (stereo not given),,inactive: -15.4%
O=S(=O)(c1cnc[nH]1)N1CCN(c2ccc(Cl)cc2)CC1,"inconclusive: 22.4 µM [inhibitor, partial curve, poor fit]",
CCC1(CC)Cc2ccccc2-c2nc(CCl)[nH]c(=O)c21,"inconclusive: 0.562 µM [inhibitor, single point]",
CCOC(=O)N1CCN(c2nc(-c3ccco3)cc(C(F)(F)F)n2)CC1,active: 3.98 µM,
O=[N+]([O-])c1cc([N+](=O)[O-])c2oc(-c3ccccc3)c(Br)c2c1O,"inconclusive: 31.6 µM [inhibitor, single point]",
NS(=O)(=O)c1ccc(NC(=S)NCc2ccc3c(c2)OCO3)cc1,,inactive: -27.1%
Cc1ccccc1N1CCN(CCC(=O)Nc2ccc(F)cc2)CC1,"inconclusive: 25.1 µM [inhibitor, single point]",
COc1cc2c(cc1OC)CN(C(=O)C1CCCN1S(=O)(=O)c1ccc(C)cc1)CC2 (stereo not given),"inconclusive: 6.31 µM [inhibitor, single point]",
Cc1ccc(-c2nc(CS(=O)(=O)CC(=O)NCc3cccc(F)c3)c(C)o2)cc1,"inconclusive: 4.47 µM [inhibitor, partial curve]",
Fc1ccc2c(c1)c1n[nH]c(=S)nc1n2CCc1ccccc1,,inactive: -1.89%
COc1ccc(Oc2c(C=O)c3ccccc3n2C)cc1,,inactive: -13.2%

SMILES,Potency,"activity change, negative = inhibition"
COc1ccccc1N1CSC2=C(C#N)C(c3ccc(SC)cc3)CC(=O)N2C1 (stereo not given),"inconclusive: 35.5 µM [inhibitor, single point]",
CN(c1cccc(NC(=O)COc2ccc(Cl)cc2Cl)c1)S(C)(=O)=O,,inactive: -0.0265%
CN(C1CCCCC1)S(=O)(=O)c1ccc(C(=O)Nc2sc3c(c2C(N)=O)CC(C)(C)NC3(C)C)cc1,inactive,
COc1ccc([C@H]2CC(=O)C=C(c3cccc(Cl)c3)C2)cc1,"inconclusive: 35.5 µM [inhibitor, single point]",
COC(=O)c1c(NC(=O)C2CC2)sc(C(=O)Nc2ccccc2)c1C,,inactive: 3.92%
O=S(=O)(Nc1ccc(Br)cc1)c1cccc2nonc12,"inconclusive: 39.8 µM [inhibitor, single point]",
Cc1cc(C)cc(N2C(=O)c3nccnc3C2=O)c1,,inactive: 2.77%
COc1cc(/C=C(\CCC(=O)O)c2nc3ccccc3s2)ccc1OCC(=O)Nc1c(Cl)cccc1Cl,"inconclusive: 3.16 µM [inhibitor, single point]",
COc1cc(CNC(=O)CCCC(=O)c2ccccc2)cc(OC)c1OC,,inactive: -1.06%
CCN(CC(=O)Nc1cc(Cl)ccc1C)C(=O)c1ccc(N2CCCC2=O)cc1,,inactive: 2.17%
O=C(OCC(=O)N1N=C(c2ccc(Cl)cc2)CC1c1ccco1)c1cccnc1 (stereo not given),"inconclusive: 35.5 µM [inhibitor, single point]",
N#Cc1sc2nc(-c3cccs3)cc(-c3ccc(F)cc3)c2c1N,"inconclusive: 35.5 µM [inhibitor, single point]",
COc1ccc2[nH]cc(CCN3C(=O)CCC3=O)c2c1,,inactive: -1.07%
O=C(COC(=O)c1cc(Cl)nc2ccccc12)c1ccc(Cl)cc1,"inconclusive: 28.2 µM [inhibitor, single point]",
COc1cccc(C(=O)C2CCCN(C/C=C/c3ccccc3OC)C2)c1 (stereo not given),"inconclusive: 39.8 µM [inhibitor, single point]",
CCSc1oc(-c2cccs2)nc1S(=O)(=O)c1ccccc1,"inconclusive: 39.8 µM [inhibitor, single point]",
CC(=O)Nc1ccc(NC(=O)CN(c2ccc(C(C)C)cc2)S(=O)(=O)c2ccccc2)cc1,"inconclusive: 1 µM [inhibitor, single point]",
CCN(CC)C(=O)Oc1ccc2c(=O)c(-c3ccccc3)coc2c1,"inconclusive: 3.98 µM [inhibitor, single point]",
c1ccc(-c2ccccc2OCCOCCN2CCNCC2)cc1,,inactive: -9.37%
CCCOc1ccc(C2C(C(=O)c3ccco3)=C(O)C(=O)N2CCCn2ccnc2)cc1 (stereo not given),"inconclusive: 0.708 µM [inhibitor, single point]",
NS(=O)(=O)c1ccc(NC(=O)Nc2ccc(Cl)cc2)cc1,,inactive: -3.36%
Cc1onc(-c2ccccc2Cl)c1C(=O)NCc1nc(-c2ccccc2)no1,,inactive: 0.422%
O=[N+]([O-])C1=C(Nc2cccc3ccccc23)CS(=O)(=O)C1,,inconclusive: -97.9% [inhibitor] [at 0.501 µM]
Cc1cccc(-c2cc(C(=O)Nc3ccncc3)c3ccccc3n2)c1,"inconclusive: 7.94 µM [inhibitor, full curve, poor fit]",

SMILES,Potency,"activity change, negative = inhibition"
COc1ccc(NS(=O)(=O)c2ccc(O)c(NC(=O)c3cc4c(C)nn(-c5ccc(F)cc5)c4s3)c2)cc1,"inconclusive: 25.1 µM [inhibitor, single point]",
CN(C)CCCNC(NC(=O)/C=C/c1ccccc1)C(Cl)(Cl)Cl (stereo not given),,inactive: -0.854%
CN1c2ccccc2-c2nc3ccccc3n2C1c1ccco1 (stereo not given),"inconclusive: 31.6 µM [inhibitor, single point]",
CCOc1ccccc1NC(=O)C(OC(=O)c1cc(C)oc1C)c1ccccc1 (stereo not given),,inactive: -12.1%
O=C(Nc1ccc(-c2nc3ncccc3o2)cc1)c1ccc([N+](=O)[O-])o1,,inactive: -7.81%
CCC(c1nnnn1CCOC)N(Cc1cc2c(C)cc(C)cc2[nH]c1=O)CC1CCCO1 (stereo not given),"inconclusive: 39.8 µM [inhibitor, single point]",
Cc1ccc(C(=O)NC2CCCCC2)cc1S(=O)(=O)N1CCCC1,,inactive: 20.5%
O=C(Cn1c(=O)n(Cc2ccc(F)cc2)c(=O)c2sc3ccccc3c21)NCc1ccccc1Cl,,inactive: -3.87%
Cn1c(=O)c(-c2ccccc2)nc2cnc(N3CCNCC3)nc21,"inconclusive: 39.8 µM [inhibitor, single point]",
Cc1cc(NC(=O)CSc2sc3c(O)cc(=O)[nH]c3c2C#N)ccc1Br,"inconclusive: 31.6 µM [inhibitor, single point]",
O=c1[nH]cnc2onc(-c3ccc(F)cc3)c12,"inconclusive: 0.708 µM [inhibitor, partial curve]",
COc1ccc(N2CC(C(=O)Nc3nnc(SCC(=O)NC4CCCC4)s3)CC2=O)cc1 (stereo not given),"inconclusive: 8.91 µM [inhibitor, full curve, poor fit]",
Nc1ccc(Cl)c(NC(=O)c2cccs2)c1,"inconclusive: 1 µM [inhibitor, full curve, poor fit]",
CCc1ccc(NC(=O)c2cnn(-c3c(C)cccc3C)c2C2CCNCC2)cc1,,inactive: 27.7%
Cc1c(O)ccc2c(CC(=O)N[C@@H](Cc3ccccc3)C(=O)O)cc(=O)oc12,"inconclusive: 31.6 µM [inhibitor, partial curve]",
CCn1cc(NC(=O)CCl)c(C)n1,"inconclusive: 25.1 µM [inhibitor, single point]",
COc1ccc2c(c1)c(CC(=O)Nc1ccccc1OC)c(C)n2C(=O)c1ccc(Cl)cc1,"inconclusive: 7.08 µM [inhibitor, single point]",
CCOC1=C/C(=C/c2c(N)n3nc(CC(=O)N4CCCCC4)sc3nc2=O)C=CC1=O,,inactive: -4.87%
COc1ccc2c(=O)c3c(=O)n(-c4ccc(C)cc4)c(-c4ccccc4)nc3oc2c1,"inconclusive: 15.8 µM [inhibitor, partial curve, poor fit]",
CN(C(=O)COC(=O)c1cc(-c2ccco2)nc2ccccc12)C1CCS(=O)(=O)C1 (stereo not given),"inconclusive: 39.8 µM [inhibitor, single point]",
CCOC(=O)c1c(-c2ccc(-c3ccccc3)cc2)csc1NC(=O)c1cccc(N2C(=O)CCC2=O)c1,"inconclusive: 3.98 µM [inhibitor, partial curve, poor fit]",
O=C(N[C@@H](Cc1ccc(Br)cc1)C(=O)O)OCC1c2ccccc2-c2ccccc21,"inconclusive: 5.01 µM [inhibitor, partial curve]",
